The record followed here is paper PMC2947498.

Protein sequences, listed by entry. Tags and fused reporters are not part of them. Lines headed by an entry give the natural chain unless they say otherwise; changes in a name come on top. Chains listed by the source or under a name are the forms on record and can include a tag or linker. Residues count along the entry.
UniProt P61586: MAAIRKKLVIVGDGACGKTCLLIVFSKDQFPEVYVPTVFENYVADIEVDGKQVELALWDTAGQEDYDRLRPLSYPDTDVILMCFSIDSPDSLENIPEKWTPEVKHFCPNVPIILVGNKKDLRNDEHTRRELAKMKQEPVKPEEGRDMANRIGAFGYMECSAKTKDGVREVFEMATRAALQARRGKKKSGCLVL
GST-RhoAV14 (P61586, form named): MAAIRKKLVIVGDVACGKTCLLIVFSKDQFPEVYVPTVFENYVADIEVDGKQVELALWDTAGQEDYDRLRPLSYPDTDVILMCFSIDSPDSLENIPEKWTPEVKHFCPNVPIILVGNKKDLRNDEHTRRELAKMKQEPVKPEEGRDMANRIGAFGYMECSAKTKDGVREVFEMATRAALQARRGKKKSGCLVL
UniProt Q9Y4D1, residues 1-545: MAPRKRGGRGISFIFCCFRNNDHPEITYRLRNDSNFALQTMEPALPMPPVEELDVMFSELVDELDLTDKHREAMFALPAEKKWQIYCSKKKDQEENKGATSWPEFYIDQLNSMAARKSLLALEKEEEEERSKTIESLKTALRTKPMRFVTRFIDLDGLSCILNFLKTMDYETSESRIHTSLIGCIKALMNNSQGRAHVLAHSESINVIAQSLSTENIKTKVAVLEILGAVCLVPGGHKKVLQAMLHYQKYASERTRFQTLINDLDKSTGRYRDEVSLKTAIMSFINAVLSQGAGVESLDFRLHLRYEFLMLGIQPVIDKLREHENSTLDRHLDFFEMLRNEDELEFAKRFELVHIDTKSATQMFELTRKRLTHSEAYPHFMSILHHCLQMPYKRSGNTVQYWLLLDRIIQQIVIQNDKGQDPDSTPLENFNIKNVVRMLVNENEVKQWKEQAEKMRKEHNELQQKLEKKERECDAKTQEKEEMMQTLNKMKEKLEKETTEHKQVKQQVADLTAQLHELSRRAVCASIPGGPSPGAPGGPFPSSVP

No constants are given. Whether binding was seen depends on the method and setting. In cells and extracts the contact can be indirect. Some binding calls cover weakened binding; strength is not graded here.

This assay deals with GST-RhoAV14 (UniProt P61586). The assay is described as follows: pull-down; in-vitro pulldown: equal amounts of DAAM1-N WT or GBD mutants added to Sepharose beads loaded with GST or GST-RhoAV14; transferred to PVDF, stained and probed.

Regarding “GFP-Flag-DAAM1-N (residues 1-545) (from UniProt Q9Y4D1 1-545) (domain or fragment)”, the binding entry is “binds”.
